# Assay results published in the supplement of paper PMC9135407.
# Values joined by “and” are separate entries in the source; they are usually repeats but may differ in a detail not shown here. Equal values may be shown once. Where a name gives a salt, the structure may show the parent alone. ± gives the standard deviation of the averaged measurements. The list shows a part of the results. Baselines shift from plate to plate; read single values as rough.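 Primary human stellate myofibroblasts activated in culture; inactivation shown by regained lipid droplets. Readout: fraction of Hoechst-counted cells exceeding a per-plate Bodipy threshold, duplicate wells, each plate with DMSO negative and nortriptyline positive controls. Hits: control-normalized score beyond the plate's top-tenth-percentile nortriptyline wells, or among its three best wells. Final well concentrations unstated.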
# Tested on: primary human hepatic stellate cells (donor 1)
# Experiment: percent Bodipy-positive cells; higher = more lipid droplet accumulation
# Details: 48 h
# Experimental: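 Primary lipid accumulation screen in primary human hepatic stellate cell myofibroblasts (donor 1, passage 8) in 384-well plates. 100 nL of library compound was pin-transferred into 30 µL medium in duplicate, and cells were treated for 48 h. The 'Scaled' score combines distance from plate baseline, toxicity and reproducibility penalties, and is normalised to nortriptyline (positive) and DMSO (negative) controls on each plate. A hit is defined as scaled >0.85 or among the top 3 wells per plate.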
# [1] = library stock concentration: 10 mM
# [2] = library stock concentration: 3.33 mM
# [3] = library stock concentration: 6.7 mM
# [4] = library stock concentration: 1 mM
smiles,measurement,setting,value
"O=C(O)COc1ccc(OCCNC[C@H](O)COc2ccccc2)cc1 [ICI 215,001 hydrochloride]",percent Bodipy-positive cells,[1],8.57 ± 0.16%
Cc1ccc(-c2csc(NC(=O)c3ccccc3)n2)c(C)c1,percent Bodipy-positive cells,[2],36.5 ± 2.5%
same,percent Bodipy-positive cells,[1],52.8 ± 22%
CN(C)CCCN1c2ccccc2Sc2ccccc21 [Promazine hydrochloride],percent Bodipy-positive cells,,40.1 ± 2%
same,percent Bodipy-positive cells,library stock concentration: 6.2 mM,84 ± 1.5%
same,percent Bodipy-positive cells,[1],51.35 ± 0.37%
NC(Cc1ccc(Cl)cc1)C(=O)O (stereo unspecified) [(?)-p-Chlorophenylalanine],percent Bodipy-positive cells,[1],48.6 ± 14%
Cc1cc(C(C)(C)C)c(O)c(C)c1CC1=NCCN1 [Oxymetazoline HCl],percent Bodipy-positive cells,[2],13.2 ± 5.1%
same,percent Bodipy-positive cells,library stock concentration: 7.7 mM,20 ± 3.7%
same,percent Bodipy-positive cells,[1],25.1 ± 5.8%
Cc1cc(C(C)(C)C)c(O)c(C)c1CC1=NCCN1 [Oxymetazoline hydrochloride],percent Bodipy-positive cells,,40.8 ± 6.2%
same,percent Bodipy-positive cells,[3],13.1 ± 0.49%
NS(=O)(=O)c1cc(C(=O)O)cc(N2CCCC2)c1Oc1ccccc1 [Piretanide],percent Bodipy-positive cells,,9.1 ± 0.49%
COc1ccc(/C=C/c2nc(NCCCN(C)C)c3ccccc3n2)cc1,percent Bodipy-positive cells,[1],100%
C[N+]1(C)[C@@H]2C[C@@H](OC(=O)C(O)(c3cccs3)c3cccs3)C[C@H]1[C@@H]1O[C@@H]12 [Tiotropium Bromide hydrate],percent Bodipy-positive cells,[2],9.33 ± 1.9%
same,percent Bodipy-positive cells,[1],12.1 ± 2.2%
CC(C)(C)C(=O)Oc1ccc(S(=O)(=O)Nc2ccccc2C(=O)NCC(=O)O)cc1 [Sivelestat sodium salt hydrate],percent Bodipy-positive cells,[1],33.8 ± 4.6%
CSc1ccc2c(c1)C(N1CCN(C)CC1)Cc1ccccc1S2 (stereo unspecified) [Methiothepin maleate],percent Bodipy-positive cells,,83.2 ± 4.7%
CSc1ccc2c(c1)C(N1CCN(C)CC1)Cc1ccccc1S2 (stereo unspecified) [Methiothepin mesylate],percent Bodipy-positive cells,[1],96.45 ± 0.94%
C[C@H]1COc2c(C3(N)CC3)c(F)cc3c(=O)c(C(=O)O)cn1c23 [Pazufloxacin],percent Bodipy-positive cells,library stock concentration: 6.3 mM,9.56 ± 2.9%
CC(C(=O)O)c1ccc2c(c1)Cc1cccnc1O2 (stereo unspecified) [Pranoprofen],percent Bodipy-positive cells,[2],13.1 ± 1.3%
same,percent Bodipy-positive cells,library stock concentration: 7.8 mM,5.71 ± 1.9%
same,percent Bodipy-positive cells,[1],31.9 ± 31%
CN(C)C/C=C(/c1ccc(Br)cc1)c1cccnc1.Cl.Cl [Zimelidine dihydrochloride],percent Bodipy-positive cells,[1],55.4 ± 6.9%
COC(=O)C[C@H](NC(=O)[C@H](C)NC(=O)[C@@H](NC(=O)OCc1ccccc1)C(C)C)C(=O)CF,percent Bodipy-positive cells,library stock concentration: 10.7 mM,21.1 ± 2.3%
Cc1cc(Nc2nc(-c3ccccc3)nc3ccccc23)n[nH]1 [GSK-3 Inhibitor XIII],percent Bodipy-positive cells,[2],38.9 ± 14%
COC(=O)[C@H]1[C@H]2C[C@H]3c4[nH]c5ccccc5c4CCN3C[C@@H]2CC[C@@H]1O [Corynanthine hydrochloride],percent Bodipy-positive cells,,27.1 ± 2.4%
Cl.Cl.c1ccc2c(NCCCCCCCNc3c4c(nc5ccccc35)CCCC4)c3c(nc2c1)CCCC3 [bis(7)-Tacrine],percent Bodipy-positive cells,[4],98.79 ± 0.16%
CC(=O)Nc1ccccc1 [Acetanilide],percent Bodipy-positive cells,[2],10.9 ± 3.6%
same,percent Bodipy-positive cells,[1],23.1% and 36.8%
O=C(/C=C/c1ccc2ccccc2n1)c1ccncc1,percent Bodipy-positive cells,[2],100%
same,percent Bodipy-positive cells,[1],95.15 ± 0.12%
Cc1cc(C(N)=O)ccc1-n1c(CCC(=O)O)ccc1-c1ccc(-n2ccnc2)cc1,percent Bodipy-positive cells,[2],38.7 ± 0.33%
same,percent Bodipy-positive cells,[1],26.3 ± 5.8%
CCCCCCCC/C=C\CCCCCCCCCCCCCC(=O)NCCS(=O)(=O)O [N-Nervonoyl Taurine],percent Bodipy-positive cells,[4],11.9 ± 0.21%
CCCCCCCCCC(=O)CC(=O)N[C@H]1CCOC1=O [N-3-oxo-dodecanoyl-L-Homoserine lactone],percent Bodipy-positive cells,[4],7.4 ± 0.41%
COC(c1ccccc1)(c1ccccc1)[C@H](Oc1nc(C)cc(C)n1)C(=O)O [Ambrisentan],percent Bodipy-positive cells,[2],4.83 ± 1.3%
same,percent Bodipy-positive cells,[1],10.4 ± 4%
COC(=O)C1=C(C)NC(C)=C(C(=O)OCCN2CCN(C(c3ccccc3)c3ccccc3)CC2)C1c1cccc([N+](=O)[O-])c1 (stereo unspecified),percent Bodipy-positive cells,[1],74.6 ± 6.8%
COC(=O)C1=C(C)NC(C)=C(C(=O)OCCN2CCN(C(c3ccccc3)c3ccccc3)CC2)C1c1cccc([N+](=O)[O-])c1 (stereo unspecified) [Manidipine],percent Bodipy-positive cells,[2],14.4 ± 3.3%
same,percent Bodipy-positive cells,[1],23.6 ± 2.4%
COC(=O)C1=C(C)NC(C)=C(C(=O)OCCN2CCN(C(c3ccccc3)c3ccccc3)CC2)C1c1cccc([N+](=O)[O-])c1 (stereo unspecified) [Manidipine 2HCl],percent Bodipy-positive cells,[2],11.2 ± 2.4%
same,percent Bodipy-positive cells,[1],23.5 ± 1.2%
CC(C)N(C[C@H]1O[C@@H](n2cnc3c(N)ncnc32)[C@H](O)[C@@H]1O)[C@H]1C[C@@H](CCc2nc3cc(C(C)(C)C)ccc3[nH]2)C1,percent Bodipy-positive cells,[2],11.64 ± 0.1%
same,percent Bodipy-positive cells,[1],66.1 ± 5.6%
C=Cc1c(C)c2cc3[nH]c(cc4nc(cc5nc(cc1[nH]2)C(C)=C5CCC(=O)O)C(CCC(=O)O)=C4C)c(C)c3C=C [Protoporphyrin IX disodium],percent Bodipy-positive cells,[1],56.77 ± 0.23%
Cc1ccc(O)c(N=Nc2ccccc2)n1,percent Bodipy-positive cells,[1],22% and 7.13%
Cc1c(C)c2c(c(C)c1O)CCC(C)(COc1ccc(CC3SC(=O)NC3=O)cc1)O2 (stereo unspecified) [Troglitazone],percent Bodipy-positive cells,[4],6.9 ± 4.7%
same,percent Bodipy-positive cells,library stock concentration: 4.5 mM,5.79% and 12.6%
C[C@]1(OC(=O)/C=C/c2ccccc2)C[C@@H](O)[C@]2(O)C=CO[C@@H](O[C@@H]3O[C@H](CO)[C@@H](O)[C@H](O)[C@H]3O)[C@@H]21 [Harpagoside],percent Bodipy-positive cells,,7.72 ± 2.3%
C[N+]1(C)[C@@H]2CC[C@H]1C[C@@H](OC(=O)C(O)c1ccccc1)C2 (stereo partly specified) [Homatropine methylbromide],percent Bodipy-positive cells,library stock concentration: 5.4 mM,4.61 ± 2%
same,percent Bodipy-positive cells,[1],21.4 ± 0.61%
C[N+]1(C)[C@@H]2CC[C@H]1C[C@@H](OC(=O)C(O)c1ccccc1)C2 (stereo partly specified) [Homatropine Methylbromide],percent Bodipy-positive cells,[2],11.1 ± 0.82%
same,percent Bodipy-positive cells,[1],26.9 ± 10%
"O=P(O)(O)O[C@@H]1[C@H](O)[C@H](O)[C@@H](OP(=O)(O)O)[C@H](OP(=O)(O)O)[C@H]1O [D-myo-Inositol-1,4,5-triphosphate (sodium salt)]",percent Bodipy-positive cells,[4],11.3 ± 0.36%
CC(=O)NC(C(=O)O)c1ccccc1 (stereo unspecified),percent Bodipy-positive cells,[1],28.8 ± 2.5%
S=C(S)OC1CC2CC1C1CCCC21 [D-609 potassium],percent Bodipy-positive cells,[1],23.9 ± 12%
Oc1ncnc2[nH]ncc12 [Allopurinol],percent Bodipy-positive cells,[2],9.386 ± 0.061%
same,percent Bodipy-positive cells,library stock concentration: 14.7 mM,7.79% and 2.02%
CN(N=O)C(=O)NC1C(O)OC(CO)C(O)C1O (stereo unspecified) [Streptozotocin (STZ)],percent Bodipy-positive cells,[2],10.3 ± 4%
same,percent Bodipy-positive cells,[1],17.2 ± 4.4%
O=[N+]([O-])c1ccc(-c2nc(-c3ccc(F)cc3)c(-c3ccncc3)[nH]2)cc1,percent Bodipy-positive cells,[4],14.8 ± 9.6%
same,percent Bodipy-positive cells,[2],14.1 ± 1.9%
same,percent Bodipy-positive cells,[1],47.6 ± 3.4%
C=C[C@]1(C)C[C@@H](OC(=O)CS[C@@H]2C[C@H]3CC[C@@H](C2)N3C)[C@]2(C)[C@H](C)CC[C@]3(CCC(=O)[C@H]32)[C@@H](C)[C@@H]1O [Retapamulin],percent Bodipy-positive cells,[2],36.1 ± 2.5%
"CCCCC(C)(C)[C@H](O)/C=C/[C@H]1C(=O)C[C@H](O)[C@@H]1C/C=C\CCCC(=O)O [16,16-dimethyl Prostaglandin D2]",percent Bodipy-positive cells,[4],10.9 ± 0.5%
CC(=O)N(O)[C@@H]1c2cc(C#N)ccc2OC(C)(C)[C@H]1O,percent Bodipy-positive cells,[1],9.87 ± 0.25%
O=C(CCc1ccc(O)cc1)c1c(O)cc(O)cc1O[C@@H]1O[C@H](CO)[C@@H](O)[C@H](O)[C@H]1O [Phlorizin],percent Bodipy-positive cells,[2],13.6 ± 5%
same,percent Bodipy-positive cells,[1],11.9 ± 2.1%
C[C@]12CCC(=O)C=C1CC[C@@H]1[C@@H]2[C@@H](O)C[C@@]2(C)[C@H]1CC[C@]2(O)C(=O)CO [Hydrocortisone],percent Bodipy-positive cells,[2],6.66 ± 1.9%
C[C@]12CCC(=O)C=C1CC[C@@H]1[C@@H]2[C@@H](O)C[C@@]2(C)[C@H]1CC[C@]2(O)C(=O)CO,percent Bodipy-positive cells,[1],21.7 ± 2.8%
C[C@]12CCC(=O)C=C1CC[C@@H]1[C@@H]2[C@@H](O)C[C@@]2(C)[C@H]1CC[C@]2(O)C(=O)CO [Hydrocortisone base],percent Bodipy-positive cells,,17.8 ± 0.88%
O=C(O)CCC/C=C\C[C@@H]1[C@@H](CCC(=O)CCc2ccccc2)[C@H](O)C[C@@H]1O [15-keto Latanoprost (free acid)],percent Bodipy-positive cells,[4],19.1 ± 2.1%
CCCCC[C@H](O)/C=C/[C@@H]1[C@@H](C/C=C\CCCCN(C)C)[C@@H](O)C[C@H]1O [Prostaglandin F2.alpha. dimethyl amine],percent Bodipy-positive cells,[4],16.1 ± 5.1%
CCCCCCC[N+](CC)(CC)CCCCc1ccc(Cl)cc1 [Clofilium tosylate],percent Bodipy-positive cells,,18.5 ± 10%
CNCCCC1c2ccccc2C=Cc2ccccc21 [Protryptyline hydrochloride],percent Bodipy-positive cells,[3],72.2 ± 2.9%
CCOC(=O)C1=C[C@@H](OC(CC)CC)[C@H](NC(C)=O)[C@@H](N)C1 [Oseltamivir tartrate],percent Bodipy-positive cells,[1],45.2 ± 1.1%
CCOC(=O)C1=C[C@@H](OC(CC)CC)[C@H](NC(C)=O)[C@@H](N)C1 [Oseltamivir],percent Bodipy-positive cells,library stock concentration: 6.4 mM,8.6 ± 1.9%
CCOC(=O)C1=C[C@@H](OC(CC)CC)[C@H](NC(C)=O)[C@@H](N)C1,percent Bodipy-positive cells,[1],41.7 ± 5.9%
C[N+]1(CCCCC[N+]2(C)CCCC2)CCCC1 [Pentolinium di[L(+)-tartrate]],percent Bodipy-positive cells,[1],21.4 ± 3.3%
C[N+]1(CCCCC[N+]2(C)CCCC2)CCCC1 [Pentolinium bitartrate],percent Bodipy-positive cells,,36.5 ± 18%
C[N+]1(CCCCC[N+]2(C)CCCC2)CCCC1 [Pentolinium tartrate],percent Bodipy-positive cells,[1],32.6 ± 3.6%
CC[C@]1(O)C[C@@H]2CN(CCc3c([nH]c4ccccc34)[C@@](C(=O)OC)(c3cc4c(cc3OC)N(C)[C@@H]3C45CCN4CC=C[C@](CC)([C@H]45)[C@H](OC(C)=O)[C@]3(O)C(=O)OC)C2)C1 (stereo partly specified) [Vinblastine],percent Bodipy-positive cells,[1],90.84 ± 0.28%
O=C(Nc1ccccc1)c1cc([N+](=O)[O-])ccc1Cl,percent Bodipy-positive cells,[4],8.99 ± 1.2%
same,percent Bodipy-positive cells,[2],15.9 ± 1.7%
C=C1C(=O)O[C@@H]2/C=C(\C)CC/C=C(\C)CC[C@@H]12 [Costunolide],percent Bodipy-positive cells,[2],11.7 ± 0.71%
Cc1onc(-c2ccccc2)c1-c1ccc(S(N)(=O)=O)cc1 [Valdecoxib],percent Bodipy-positive cells,[2],14.2 ± 0.98%
same,percent Bodipy-positive cells,[1],57.6% and 43%
Cc1onc(-c2ccccc2)c1-c1ccc(S(N)(=O)=O)cc1,percent Bodipy-positive cells,[1],9.21 ± 1.4%
COc1ccc(CCN(C)CCCC(C#N)(c2ccc(OC)c(OC)c2)C(C)C)cc1OC (stereo unspecified) [Verapamil],percent Bodipy-positive cells,library stock concentration: 4.4 mM,33.3 ± 0.86%
COc1ccc(CCN(C)CCCC(C#N)(c2ccc(OC)c(OC)c2)C(C)C)cc1OC (stereo unspecified) [Verapamil HCl],percent Bodipy-positive cells,[2],61.2 ± 5.8%
same,percent Bodipy-positive cells,[1],62.8 ± 1.8%
COc1ccc(CCN(C)CCCC(C#N)(c2ccc(OC)c(OC)c2)C(C)C)cc1OC (stereo unspecified) [Verapamyl hydrochloride],percent Bodipy-positive cells,,56.8 ± 2%
COc1ccc(CCN(C)CCCC(C#N)(c2ccc(OC)c(OC)c2)C(C)C)cc1OC (stereo unspecified) [Verapamil hydrochloride],percent Bodipy-positive cells,[1],71.05 ± 0.62%
CCCc1cc(=O)[nH]c(=S)[nH]1 [Propylthiouracil],percent Bodipy-positive cells,,25.4 ± 4.7%
same,percent Bodipy-positive cells,[2],8.04 ± 5.2%
